# Data reported in the supplement of paper PMC8728848.
# The other results are listed elsewhere or left out.
# B1: Wzz (Escherichia coli) (protein)
# chain: MRTWKFPSVRVMMRVENNNVSGQNHDPEQIDLIDLLVQLWRGKMTIIISVIVAIVLAIGYLAVAKEKWTSTAIITQPDVGQIAGYNNAMNVIYGQAAPKVSDLQETLIGRFSSAFSALAETLDNQEEPEKLTIEPSVKNQQLPLTVSYVGQTAEGAQMKLAQYIQQVDDKVNQELEKDLKDNIALGRKNLQDSLRTQEVVAQEQKDLRIRQIQEALQYANQAQVTKPQIQQTGEDITQDTLFLLGSEALESMIKHEATRPLVFSSNYYQTRQNLLDIDNLDVDKLDIHAYLYVMKPTLPIRRDSPKKAITLILAVLLGGMVGAGIVLGRNALRNYNAK
# Legend:
# Assay in all cases: glycan array binding signal (z-score within array); higher = stronger binding
# Conditions in all cases: glycan notation: IUPAC condensed, linker removed
# [1] = target: Fuc(a1-2)Gal
# How it was run: (§1)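 Columns mapping to the same glycan were averaged after glycan names were converted to IUPAC-condensed notation. The data come from 3228 arrays in the Consortium for Functional Glycomics database, limited to those with an available protein sequence. Binding is reported as a within-array Z-score averaged across arrays of one protein sequence and across linkers.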
# [2] = target: Fuc(a1-2)Gal(b1-3)GalNAc
# How it was run: as §1
# [3] = target: Fuc(a1-2)Gal(b1-3)GalNAc(a1-3)[Fuc(a1-2)]Gal(b1-4)Glc
# How it was run: as §1
# [4] = target: Fuc(a1-2)Gal(b1-3)GalNAc(a1-3)[Fuc(a1-2)]Gal(b1-4)GlcNAc
# How it was run: as §1
# [5] = target: Fuc(a1-2)Gal(b1-3)GalNAc(b1-3)Gal
# How it was run: as §1
# [6] = target: Fuc(a1-2)Gal(b1-3)GalNAc(b1-3)Gal(a1-4)Gal(b1-4)Glc
# How it was run: as §1
# [7] = target: Fuc(a1-2)Gal(b1-3)GalNAc(b1-4)[Neu5Ac(a2-3)]Gal(b1-4)Glc
# How it was run: as §1
# [8] = target: Fuc(a1-2)Gal(b1-3)GlcNAc
# How it was run: as §1
# [9] = target: Fuc(a1-2)Gal(b1-3)GlcNAc(b1-2)Man(a1-3)[Fuc(a1-2)Gal(b1-3)GlcNAc(b1-2)Man(a1-6)]Man(b1-4)GlcNAc(b1-4)GlcNAc
# How it was run: as §1
# [10] = target: Fuc(a1-2)Gal(b1-3)GlcNAc(b1-2)Man(a1-3)[Fuc(a1-2)Gal(b1-3)GlcNAc(b1-2)Man(a1-6)]Man(b1-4)GlcNAc(b1-4)[Fuc(a1-6)]GlcNAc
# How it was run: as §1
# [11] = target: Fuc(a1-2)Gal(b1-3)GlcNAc(b1-3)Gal(b1-4)Glc
# How it was run: as §1
# [12] = target: Fuc(a1-2)Gal(b1-3)GlcNAc(b1-3)GalNAc
# How it was run: as §1
# [13] = target: Fuc(a1-2)Gal(b1-3)GlcNAc(b1-3)[Fuc(a1-2)Gal(b1-3)GlcNAc(b1-6)]GalNAc
# How it was run: as §1
# [14] = target: Fuc(a1-2)Gal(b1-3)GlcNAc(b1-3)[Gal(b1-4)GlcNAc(b1-6)]Gal(b1-4)Glc
# How it was run: as §1
# [15] = target: Fuc(a1-2)Gal(b1-3)GlcNAc(b1-3)[Neu5Ac(a2-6)Gal(b1-4)GlcNAc(b1-6)]Gal(b1-4)Glc
# How it was run: as §1
# [16] = target: Fuc(a1-2)Gal(b1-3)GlcNAc6S
# How it was run: as §1
# [17] = target: Fuc(a1-2)Gal(b1-3)[Fuc(a1-4)]GlcNAc
# How it was run: as §1
# [18] = target: Fuc(a1-2)Gal(b1-3)[Fuc(a1-4)]GlcNAc(b1-2)Man(a1-3)[Fuc(a1-2)Gal(b1-3)[Fuc(a1-4)]GlcNAc(b1-2)Man(a1-3)]Man(b1-4)GlcNAc(b1-4)GlcNAc
# How it was run: as §1
# [19] = target: Fuc(a1-2)Gal(b1-3)[Fuc(a1-4)]GlcNAc(b1-2)Man(a1-3)[Fuc(a1-2)Gal(b1-3)[Fuc(a1-4)]GlcNAc(b1-2)Man(a1-6)]Man(b1-4)GlcNAc(b1-4)[Fuc(a1-6)]GlcNAc(b1-4)[Fuc(a1-6)]GlcNAc
# How it was run: as §1
# [20] = target: Fuc(a1-2)Gal(b1-3)[Fuc(a1-4)]GlcNAc(b1-3)[Fuc(a1-3)[Gal(b1-4)]GlcNAc(b1-6)]Gal(b1-4)Glc
# How it was run: as §1
# [21] = target: Fuc(a1-2)Gal(b1-3)[Fuc(a1-4)]GlcNAc(b1-3)[Gal(b1-4)GlcNAc(b1-6)]Gal(b1-4)Glc
# How it was run: as §1
# [22] = target: Fuc(a1-2)Gal(b1-4)Glc
# How it was run: as §1
# [23] = target: Fuc(a1-2)Gal(b1-4)Glc6S
# How it was run: as §1
# [24] = target: Fuc(a1-2)Gal(b1-4)GlcNAc
# How it was run: as §1
# [25] = target: Fuc(a1-2)Gal(b1-4)GlcNAc(b1-2)Man
# How it was run: as §1
# [26] = target: Fuc(a1-2)Gal(b1-4)GlcNAc(b1-2)Man(a1-3)[Fuc(a1-2)Gal(b1-4)GlcNAc(b1-2)Man(a1-6)]Man(b1-4)GlcNAc(b1-4)GlcNAc
# How it was run: as §1
# [27] = target: Fuc(a1-2)Gal(b1-4)GlcNAc(b1-2)Man(a1-3)[Fuc(a1-2)Gal(b1-4)GlcNAc(b1-2)Man(a1-6)]Man(b1-4)GlcNAc(b1-4)[Fuc(a1-6)]GlcNAc
# How it was run: as §1
# [28] = target: Fuc(a1-2)Gal(b1-4)GlcNAc(b1-2)[Fuc(a1-2)Gal(b1-4)GlcNAc(b1-4)]Man(a1-3)[Fuc(a1-2)Gal(b1-4)GlcNAc(b1-2)Man(a1-6)]Man(b1-4)GlcNAc(b1-4)GlcNAc
# How it was run: as §1
# [29] = target: Fuc(a1-2)Gal(b1-4)GlcNAc(b1-3)Gal(b1-4)GlcNAc
# How it was run: as §1
# [30] = target: Fuc(a1-2)Gal(b1-4)GlcNAc(b1-3)Gal(b1-4)GlcNAc(b1-2)Man(a1-3)[Fuc(a1-2)Gal(b1-4)GlcNAc(b1-3)Gal(b1-4)GlcNAc(b1-2)Man(a1-6)]Man(b1-4)GlcNAc(b1-4)GlcNAc
# How it was run: as §1
binder,measurement,setting,value
B1,glycan array binding signal (z-score),[1],-0.122
same,glycan array binding signal (z-score),[2],-0.619
same,glycan array binding signal (z-score),[3],0.119
same,glycan array binding signal (z-score),[4],0.216
same,glycan array binding signal (z-score),[5],-0.012
same,glycan array binding signal (z-score),[6],-0.013
same,glycan array binding signal (z-score),[7],-0.278
same,glycan array binding signal (z-score),[8],-0.154
same,glycan array binding signal (z-score),[9],0.134
same,glycan array binding signal (z-score),[10],-0.072
same,glycan array binding signal (z-score),[11],0.077
same,glycan array binding signal (z-score),[12],-0.55
same,glycan array binding signal (z-score),[13],-0.621
same,glycan array binding signal (z-score),[14],-0.335
same,glycan array binding signal (z-score),[15],-1.06
same,glycan array binding signal (z-score),[16],-0.211
same,glycan array binding signal (z-score),[17],-0.692
same,glycan array binding signal (z-score),[18],0.002
same,glycan array binding signal (z-score),[19],-0.552
same,glycan array binding signal (z-score),[20],-0.369
same,glycan array binding signal (z-score),[21],-0.77
same,glycan array binding signal (z-score),[22],-0.027
same,glycan array binding signal (z-score),[23],-0.088
same,glycan array binding signal (z-score),[24],-0.345
same,glycan array binding signal (z-score),[25],0.3
same,glycan array binding signal (z-score),[26],0.027
same,glycan array binding signal (z-score),[27],-0.64
same,glycan array binding signal (z-score),[28],-0.244
same,glycan array binding signal (z-score),[29],-0.868
same,glycan array binding signal (z-score),[30],-0.586

# Looked up one by one from the list above:
binder,measurement,setting,value
B1,glycan array binding signal (z-score),[21],-0.77
same,glycan array binding signal (z-score),[29],-0.868
